# Most values lie at the floor of the assay. Slopes are relative: functional sequences can read slightly below zero.
# Test system: Saccharomyces cerevisiae PS128 hsf1 delta, HSF1(1-493) fusion
# Experiment: growth estimate (transactivation domain function in HSF1 fusion, heat-shock survival) (a.u. (slope of normalised read count over time)); higher = stronger growth at 37°C, i.e. more transactivation activity
# Conditions: library: random library
row,Substance,growth estimate
1,VSAKAMRLHRVTLKSTIPTF,< -0.25
2,LYIRDSWRKS,< -0.25
3,FSCH,< -0.25
4,MAPSL,< -0.25
5,GPSSARSSIPR,< -0.25
6,RRVLRAYPVNVGDTSRCRQS,< -0.25
7,TRPMGGAVNSPERTMYQNDS,< -0.25
8,ADDSADWTQRLRPSPPV,< -0.25
9,STVRLLSRRLHAGSVRASPD,< -0.25
10,QEV,< -0.25
11,CPYLLTHCLCAFEIGWFSTG,< -0.25
12,GGRASLWFRSQGSDTIIRLS,< -0.25
13,TNRDSGLR,< -0.25
14,RTEASTCTATPM,< -0.25
15,RTIWRRQRVDSCLATGHRSG,< -0.25
16,SGDKCA,< -0.25
17,LYNSDCCLYRMQCGPSLIHE,< -0.25
18,HDKSEYALSPGTTVKRTCPI,< -0.25
19,RRTREPLNDLMVQLR,< -0.25
20,ASLGCEPLEGRGA,< -0.25
21,DLRRRPATKNSAS,< -0.25
22,NGQGTSANERPPEKTSWNLR,< -0.25
23,SWSP,< -0.25
24,SSGCNAVKGVYLMVKLRRTG,< -0.25
25,AYRVSMAAAKSDQVSE,< -0.25

row,Substance,growth estimate
1,WYSSVIGRWCQRLV,< -0.25
2,PAIGAVAQVV,< -0.25
3,DLSKPEKSS,< -0.25
4,LYE,< -0.25
5,LYLCSNLSPSGVALKMNIQR,-0.229
6,QLPKRKLTRQESWPTRIHAK,< -0.25
7,VLKTWYLEFEVNRLTQHSPV,< -0.25
8,RPKGLIAGMQ,< -0.25
9,SRTRQPGGSFRCMGEGLITN,< -0.25
10,LGGPTCLQMSIRSFRNASAK,< -0.25
11,LIFQNGYA,< -0.25
12,PPGDNGKGQHRALAGLVF,< -0.25
13,ASLDGFSVGCHSGHFALSIA,-0.246
14,GVVL,< -0.25
15,PRHVIYEIHGSAKPASACQR,< -0.25
16,YTRTMDSARLGESWLLTQCT,< -0.25
17,IYGGGASVRPVEGKRSAAPR,< -0.25
18,NTLSR,< -0.25
19,RVWAGLRGARCHEVIKEPLG,< -0.25
20,WWY,< -0.25
21,VPFGYFNSATKALDWENSRT,< -0.25
22,GGWWPRLLNNETRAFALRGS,< -0.25
23,TRGSSEGEPAKISVHGSLLP,< -0.25
24,FVMFRTDSASRT,< -0.25
25,TLVMPTASHPLC,< -0.25

row,Substance,growth estimate
1,GSQTVK,< -0.25
2,FRADRSFLHGVRPRRKARAR,< -0.25
3,SYAPAGNHVPPRQPARSEVN,< -0.25
4,SNKTTR,< -0.25
5,QHLETSYRKICVPRSGLGQV,< -0.25
6,EGSRESMISPRLARIPRTYW,< -0.25
7,QGMRDGLSRCVDPVRLGRGY,< -0.25
8,HDTGEAI,-0.203
9,RLGCDRAPATGMDCKWLIDC,< -0.25
10,VNTVLAGSRARPVIFSAVCE,< -0.25
11,IVMGDNPAGVLCGTGPHHSS,-0.231
12,FGKRPAVPYIALAPDPSAVT,< -0.25
13,LGRHSTPPVPESESIRFNTN,< -0.253
14,MRLPNCSC,< -0.25
15,AYLRSLGAEPNLPGDVEREV,< -0.25
16,GPACKFNRFLQIALVACPPA,< -0.25
17,WEVQRFAGVVDKGHMCPMSP,< -0.25
18,QDTLFF,< -0.25
19,VFPYCMTYAFH,< -0.25
20,RRAVINGTWVGEHSWVWSVL,< -0.253
21,ARSLCITEGECLILASLNLE,< -0.25
22,DFEPLVIQGVAGANIYAIWR,< -0.25
23,KSTRSGTGSAGPMRKKEFQH,< -0.25
24,SALNPDATSLASRGRPYTRP,< -0.25
25,GYCLFLRDFPNVRKHCSPHA,< -0.25

row,Substance,growth estimate
1,QANPSTLTARSDWQRRKICS,< -0.25
2,RRSCSSDSPTHLPV,< -0.25
3,TCVAKNGTLLSLGAGSLGSP,< -0.25
4,WRKSKGAWK,< -0.25
5,YYHLCLCHPY,< -0.25
6,TPGIEIERVNVLPVAL,-0.21
7,RSTFTAR,< -0.25
8,HPWQ,< -0.25
9,KRL,< -0.25
10,GIGYAAWPLYTVTGLAFRKL,< -0.25
11,SIYVI,< -0.25
12,GYERENHQVAWH,< -0.25
13,KREAPPAPEWSRE,< -0.25
14,NCLTDGDRNVAAGTLHNCML,< -0.25
15,SQLTICQMERALPRDGARPD,< -0.25
16,LLRYGSDQMLES,< -0.25
17,YKRGPLETALVFYV,< -0.25
18,HQPTVKLASFQQWCGNLSIA,< -0.25
19,ESAELHH,< -0.25
20,WCYSYMQWFSSRNAACLVSA,< -0.25
21,LCSV,< -0.25
22,PSFL,< -0.25
23,IPHRHFSGRKLLTQHYLGPS,< -0.25
24,GSILWPYAN,< -0.25
25,QSLQRVALGSKAHYYRGV,< -0.25

row,Substance,growth estimate
1,SDCFASSESSFVAELFSYTL,< -0.25
2,QFTKCSSDQSVPCFFLLSSP,-0.248
3,SLGSLQKGIREKHGCRFG,< -0.25
4,SVHIDLLISPILPV,< -0.25
5,IDRTG,< -0.25
6,RRPGDYQYDEMN,1.5
7,VYCAVCLRTPYGAPVPCVFW,< -0.25
8,TVMLHGQRLDPGYGRRSDVY,< -0.25
9,RCEL,< -0.25
10,LDNPHSRKSRL,< -0.25
11,FYVQDLNYHVENVGTTSRLR,< -0.25
12,YCSFYLSR,< -0.25
13,RYYPWV,< -0.25
14,LGTKAILMG,< -0.25
15,GGGRARSEPPWDAMTAVIKF,< -0.25
16,SFGLACRLYARGLGVPLFLS,< -0.25
17,TVIDSLLRLVTMEDFLNKAG,-0.0917
18,AEVVRQYGVKDATTKDLLAG,< -0.25
19,SLNEGSLTEAVHRRFPQQVS,< -0.25
20,EGS,< -0.25
21,DATCLRGSSHYVALAIRL,< -0.25
22,NVTRDLRGGARRS,< -0.25
23,RCSDQRPFMSP,< -0.25
24,RFLVHALERILVTGRREGPG,< -0.25
25,THQSVTGTAGTAGGP,< -0.25

# Quoted from above (six entries):
row,Substance,growth estimate
12,YCSFYLSR,< -0.25
13,RYYPWV,< -0.25
14,LGTKAILMG,< -0.25
15,GGGRARSEPPWDAMTAVIKF,< -0.25
16,SFGLACRLYARGLGVPLFLS,< -0.25
17,TVIDSLLRLVTMEDFLNKAG,-0.0917

# Remaining list, next part

row,Substance,growth estimate
1,SPLQGRGGQSKRPPRITRPV,< -0.25
2,SHPNLFRIPYGRRYI,-0.219
3,GRKIHCRSERLRGQSERFAP,< -0.25
4,DASTSLQQVHFF,< -0.25
5,PQGGPSH,< -0.25
6,LVFHRHTGLYIILDMAIVIT,< -0.25
7,LRARVHSVSGHFAQAMRAAT,< -0.25
8,SIRTFLFCTDGRRGGCDQAT,< -0.25
9,ISPHVDGTSTKLPTDCTRAQ,-0.246
10,VSNCA,< -0.25
11,HRPRDNLLSRSNGAGKLRIS,< -0.25
12,HEPVNSLISTVSVVFRLSTA,< -0.25
13,GQFMGMWASMSARVLFAPFR,< -0.25
14,VDVGLLVGGAG,< -0.25
15,VFSSVVHTA,< -0.25
16,SASNLVENIGVLFGIDNRFG,< -0.25
17,HFAALSNSCSDMGILHLAPA,< -0.25
18,KQV,< -0.25
19,SVVRHPPNCLKRAIVRAFAP,< -0.25
20,YSRGLTYSVSGKRTAFHRLD,< -0.25
21,PALGGAQ,< -0.25
22,TVKRGCAGTYGSPILGGPST,< -0.25
23,RLRLTSFDHRAAIW,< -0.25
24,EGFT,< -0.25
25,FDTDCEHSEYVYLGAALF,< -0.25

# Part of the list above, with tabs.
row	Substance	growth estimate
16	SASNLVENIGVLFGIDNRFG	< -0.25
17	HFAALSNSCSDMGILHLAPA	< -0.25

# (listing goes on)

row,Substance,growth estimate
1,KNGRKHDTHKSVTRFHPHGS,< -0.25
2,LYKLPTSCPFRGVVCIRRVG,< -0.25
3,KTG,-0.237
4,AVNISLLFKRAFAVAFMGDA,< -0.25
5,GLPPFQLKAMLLTDPIVCCA,< -0.25
6,VSSVKLLGLIYRYLLDSPRK,-0.25
7,PTVNGHGTRGGLHYGDIGGS,< -0.25
8,MGRGAKLDLRRMKL,< -0.25
9,CNGE,< -0.25
10,ARWRDALGSWLRKRSSTSVS,< -0.25
11,GACNAGPPTEFICPE,< -0.25
12,PLTGVI,< -0.25
13,HTNAESGRE,< -0.25
14,VERLDMTVLAAPSVVRRAGS,< -0.25
15,GAPLGSIQKSAYCNVWKKSG,< -0.25
16,YLNDIGNVDVRVWITYITGV,< -0.25
17,WLTPSTR,< -0.25
18,SVGAVATPTLW,< -0.25
19,KVPARGDRSIGDESSPLLRR,< -0.25
20,FLKRGC,< -0.25
21,SRAGMGFGSSSGRYSSTTRR,< -0.25
22,AGARHCDFRAPCIHGKDTVS,< -0.25
23,RYERDPMSRAYRFFVGSHLA,< -0.25
24,TGLCTWRKT,< -0.25
25,MSWGTRLRTGVHKFQGRGA,< -0.25

row,Substance,growth estimate
1,YLAGVFAN,< -0.25
2,GPRCMRSASLPYGVWTES,< -0.25
3,PAMRPLHEEISTHATTRPQL,< -0.25
4,ILEFEIRG,< -0.25
5,VCSTP,< -0.25
6,LGILKYLARRRQIR,< -0.25
7,VLTSFIKLVLCHHA,< -0.25
8,LAKKVLPTEMQASTGRGCSK,< -0.25
9,DLKFMTSRATHRLGACNVRW,< -0.25
10,IPMKQGLEASGGVPKAAAS,< -0.25
11,SSHSKSTNRRR,< -0.25
12,VLESVFRHLHGLNRYTRPRV,< -0.25
13,AAGRGGRVPCLVKEHLN,< -0.25
14,QEKGCPLLETIGGHSAPT,< -0.25
15,VYTPGKTDT,< -0.25
16,NVRMLTSSEKGLELTVAL,< -0.25
17,ARGRRRHLRGLGRDIKRLKR,< -0.25
18,QYFSWRVKSPFVGATLTKHA,< -0.25
19,LVTTAGALSLPSYLRVSLAG,< -0.25
20,DHEGFRSARVHV,< -0.25
21,ARRRQRLQLGA,< -0.25
22,SMSNNCQAKCATGW,< -0.25

# Reference: the supplement of paper PMC5949888
